The values that follow come from patent publication US20080038286A1.

By UniProt entry, the sequences of proteins in these tests, tags left out. Residues count along the entry.
UniProt Q9NNX6, residues 59-404: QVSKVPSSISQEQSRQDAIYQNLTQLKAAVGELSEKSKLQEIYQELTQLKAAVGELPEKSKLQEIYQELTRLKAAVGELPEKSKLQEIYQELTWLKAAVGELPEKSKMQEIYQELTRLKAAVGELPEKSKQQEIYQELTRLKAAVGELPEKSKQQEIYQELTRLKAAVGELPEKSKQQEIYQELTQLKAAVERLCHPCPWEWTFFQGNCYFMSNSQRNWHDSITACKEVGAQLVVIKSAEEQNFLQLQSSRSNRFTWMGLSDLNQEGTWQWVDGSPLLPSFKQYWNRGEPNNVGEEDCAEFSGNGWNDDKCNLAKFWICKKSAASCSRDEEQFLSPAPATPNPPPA

No constants are given. Whether binding was seen depends on the method and setting. Some binding calls cover weakened binding; strength is not graded here.

Test [1] deals with HIV-1 gp120 of YU2 strain produced in mammalian cells (HIV-1 strain YU2) (UniProt P35961). The test can be described thus: ELISA, plate coated with DC-SIGN ECD, YU2 gp120 added in rising amounts (0.64-2000 ng). Background: An ELISA detects its analyte on a solid surface through an enzyme-linked reagent.
Test [2] shares this target. The test can be described thus: ELISA, DC-SIGN ECD coated on the plate, gp120 YU2 in solution.

As for “DC-SIGN extracellular domain (ECD) recombinant protein, expressed in E. coli and refolded (from UniProt Q9NNX6 59-404) (receptor)”, the binding entry in test [1] and in test [2] was “binds” throughout.
